# Reference: PubChem BioAssay AID1309 (The Scripps Research Institute Molecular Screening Center, 2008)
# In all, about 1,200 compounds went through this assay and about 130 (11%) were called active. No stated cut-off is given here; in the data, active means activation above about 120%; inactive means the rest. The entries are a selection whose mix differs from that of the whole data set.
# Assay: NF-kB reporter activators in human cells, counter-screen for STAT3 activator project (AID 1309);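 further: reporter induced by TNF-alpha stimulation; 100% = median of stimulated DMSO wells and 0% = no signal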
# Conditions: NF-kappaB reporter activation, at 5.7 µM, hits give high values
row,SMILES,activation (% of control)
1,CCC/C(=N\O)c1c[nH]c2ccccc12,inactive: 103%
2,COc1cc(-n2c(=S)[nH]c3ccc(C)cc3c2=O)c(Cl)cc1Cl,inactive: 100%
